PubChem BioAssay AID1259308 | NCATS, 2017

- Screen: 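Genes whose loss raises luciferase production in HEK293 cells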 (primary screen)
- Cell system: human HEK293 embryonic kidney cells stably expressing firefly luciferase (HEK-CMV-Luc2-Hygro)
- Reagent: single siRNA against human genes, 0.8 pmol siRNA per well
- Timing: 72 h
- Measurement: 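Reporter luminescence and viable-cell signal on separate replicate plates, given as percent of non-targeting control and median/MAD z-scores, plus per-cell luciferase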
- Scale: total luciferase, z-score: higher = more reporter protein produced
- Rule for the call: 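An siRNA counts as active if its total luciferase robust z-score exceeds 3; genes with two or more such siRNAs out of three were retested with fresh siRNAs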
- Calls: active = raised luciferase; inactive = no rise
Shown is an unselected part of about 59,000 reagents tested. About 1,510 of all reagents (2.6%) count as active. 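Calls use total luciferase alone and ignore viability, so some active siRNAs may act by altering cell number.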 The numbers tell different reagents against one gene apart. Not all columns of the deposit are shown.

total luciferase, z-score, by target and reagent
SPMIP9 (sperm microtubule inner protein 9): #1 -0.244 inactive; #2 0.285 inactive; #3 -1.6 inactive
UBL5 (ubiquitin like 5): #1 1.76 inactive; #2 -0.25 inactive; #3 -0.978 inactive
COX15 (cytochrome c oxidase assembly factor COX15): #1 1 inactive; #2 0.68 inactive; #3 0.225 inactive
CHD9 (chromodomain helicase DNA binding protein 9): #1 -0.54 inactive; #2 -0.871 inactive; #3 0.00672 inactive
ARFGEF1 (ARF guanine nucleotide exchange factor 1): #1 1.63 inactive; #2 0.143 inactive; #3 -1 inactive
FLOT1 (flotillin 1): #1 -2.23 inactive; #2 -0.0456 inactive; #3 -0.715 inactive
NEURL2 (neuralized E3 ubiquitin protein ligase 2): #1 1.12 inactive; #2 2.29 inactive; #3 2.48 inactive
LZTS2 (leucine zipper tumor suppressor 2): #1 0.046 inactive; #2 -1.26 inactive; #3 1.34 inactive
ATPAF1 (ATP synthase mitochondrial F1 complex assembly factor 1): #1 -1.65 inactive; #2 2.16 inactive; #3 0.693 inactive
BCL2 (BCL2 apoptosis regulator): #1 -0.629 inactive; #2 -1.28 inactive; #3 -0.317 inactive
ZNF10 (zinc finger protein 10): #1 -1.09 inactive; #2 -0.722 inactive; #3 -0.0766 inactive
PFN1P3 (profilin 1 pseudogene 3): #1 -0.288 inactive; #2 -0.428 inactive; #3 -0.17 inactive
WDR17 (WD repeat domain 17): #1 -0.433 inactive; #2 1.2 inactive; #3 -0.762 inactive
FLRT1 (fibronectin leucine rich transmembrane protein 1): #1 7.48 active; #2 0.00139 inactive; #3 0.566 inactive

Hits, among the entries above:
total luciferase, z-score, by target and reagent
FLRT1 (fibronectin leucine rich transmembrane protein 1): #1 7.48 active

The listing continues.
total luciferase, z-score, by target and reagent
CRIP2 (cysteine rich protein 2): #1 -0.453 inactive; #2 -0.381 inactive; #3 -0.378 inactive
KCNK12 (potassium two pore domain channel subfamily K member 12): #1 -1.57 inactive; #2 0.431 inactive; #3 -1.8 inactive
FUOM (fucose mutarotase): #1 -0.502 inactive; #2 1.42 inactive; #3 0.228 inactive
RUFY1 (RUN and FYVE domain containing 1): #1 -0.775 inactive; #2 -0.804 inactive; #3 -0.103 inactive
DFFB (DNA fragmentation factor subunit beta): #1 0.0371 inactive; #2 1.77 inactive; #3 -0.861 inactive
TRMT9B (tRNA methyltransferase 9B (putative)): #1 0.497 inactive; #2 -0.457 inactive; #3 1.5 inactive
YIPF1 (Yip1 domain family member 1): #1 1.46 inactive; #2 -2.81 inactive; #3 -0.717 inactive
PPRC1 (PPARG related coactivator 1): #1 1.75 inactive; #2 -0.571 inactive; #3 0.188 inactive
CDRT15P13 (CDRT15 pseudogene 13): #1 -0.171 inactive; #2 3.58 active; #3 -1.86 inactive
COA5 (cytochrome c oxidase assembly factor 5): #1 0.0429 inactive; #2 -1.01 inactive; #3 1.15 inactive
TMCO5B (transmembrane and coiled-coil domains 5B (pseudogene)): #1 -0.472 inactive; #2 -0.487 inactive; #3 -0.698 inactive
